The whole screen tested about 220,000 compounds, of which about 2,400 (1.1%) were called active. Inconclusive means that the source gave no clear call. Such entries were picked first, then a sample of the others. Calls come from the whole dose curve; as a rule, active = well fitted inhibition curve with a large enough effect; inconclusive = small, poorly fitted or top-dose-only effect, or effect the other way; inactive = no such curve, though single readings can be large or run the other way. A potency beside an inconclusive call is a rough fit, not a confirmed value.
Assay: qHTS Multiplex Assay to Identify Dual Action Probes in a Cell Model of Huntington: Aggregate Formation (GFP); note: nearly all actives have a fitted effect of over 60% in size
Conditions: PC12 HttQ103-GFP aggregates, Acumen cytometry, 40 h; activity change, negative = inhibition: at 46.1 µM (top of the series) unless noted
Outline: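 Huntingtin Q103 exon 1–GFP aggregates in induced PC12 cells (100 nM tebufenozide) were quantified by cytometry from lysates, with compounds dosed in titration.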
With `CCN(CC(=O)Nc1ccc2c(c1)OCO2)Cc1nc2ccccc2c(=O)[nH]1` the “activity change, negative = inhibition” value was inactive: 4.04%. In the case of `CC(=O)N1CCc2c(sc(NC(=O)C3CC3)c2-c2nc3ccccc3s2)C1`, the Potency is reported as inconclusive: 35.5 µM [activator, single point]. In the case of `O=C(NCCc1cn2ccccc2n1)c1cc(COc2ccc3ncccc3c2)on1`, the Potency is reported as active: 11.2 µM. In the case of `Oc1ccc(O)c(Cc2nc3ccccc3s2)c1`, the Potency is reported as inconclusive: 35.5 µM [inhibitor, single point]. In the case of `CCn1c(SCC(=O)c2ccc(C)cc2)nnc1-c1ccoc1C`, the Potency is reported as inconclusive: 22.4 µM [activator, single point]. With `COc1cc(/C=C2/S/C(=N/S(=O)(=O)Cc3ccccc3)NC2=O)c([N+](=O)[O-])cc1OC` the activity change, negative = inhibition was inactive: 2.83% [at 9.22 µM]. With `O=C(N/N=C/C(Br)=C/c1ccccc1)c1n[nH]c2c1CCC2` the Potency was inconclusive: 31.6 µM [activator, single point]. In the case of `c1ccc(CNc2nc(N3CCOCC3)nc(N3CCOCC3)n2)cc1`, the Potency is reported as inconclusive: 7.94 µM [inhibitor, full curve, poor fit]. With `CC(=O)c1c(C(C)=O)c(C)n(C(c2ccccc2)c2ccccc2)c1C` the “activity change, negative = inhibition” value was inactive: -3.4%. With `CC(=O)N1CC=C2C(C#N)=C(N)C(C#N)(C#N)C(C)C2C1` (configuration not stated) the Potency was inconclusive: 1 µM [inhibitor, full curve, poor fit]. In the case of `N#Cc1cc2c(nc1SCC(O)CS(=O)(=O)Cc1ccccc1)CCCC2` (configuration not stated), the Potency is reported as inconclusive: 5.62 µM [inhibitor, single point]. For `COc1ccccc1NC(CC(=O)c1ccccc1)C(=O)OCC(=O)c1ccc(F)cc1` (configuration not stated), the Potency was inconclusive: 31.6 µM [activator, single point]. For `C/C=C/c1ccc(OCCCN2C(=O)NC(C)(C)C2=O)c(OC)c1`, the activity change, negative = inhibition was inactive: -1.91% [at 9.22 µM]. With `COC(=O)COc1cc(Br)c(/C=C2/SC(=O)N(CC(=O)N3CCCC3)C2=O)cc1OC` the Potency was inconclusive: 5.62 µM [inhibitor, single point]. With `COc1ccc2c(c1)CC/C(=C/c1ccco1)C2=O` the “activity change, negative = inhibition” value was inactive: 7.99%. For `COc1ccc(S(=O)(=O)NC2CCCCC2)cc1-n1cnnn1`, the activity change, negative = inhibition was inactive: -10% [at 9.22 µM]. With `CC(=O)N1CCN(S(=O)(=O)c2cccc(C(=O)Nc3ccc4c(c3)CCC4)c2)CC1` the Potency was inconclusive: 17.8 µM [inhibitor, single point]. For `Cn1c(COc2ccc(Cl)cc2)nnc1SCc1ncc(-c2ccccc2)o1`, the activity change, negative = inhibition was inactive: 14.5% [at 9.22 µM]. In the case of `C/C(=N\NC(=O)c1ccccc1O)C1C(=O)c2ccccc2C1=O`, the Potency is reported as inconclusive: 1.26 µM [inhibitor, partial curve]. In the case of `Cc1ccc(CSCc2nnc(SCC(=O)N3CCN(c4ccccc4)CC3)n2C)cc1`, the Potency is reported as inconclusive: 25.1 µM [inhibitor, single point]. In the case of `COc1ccc(N2CCN(C(=O)CSc3nnnn3-c3ccc4c(c3)OCCO4)CC2)cc1`, the Potency is reported as inconclusive: 14.1 µM [inhibitor, partial curve]. With `COc1ccc(C(=O)/C=C/c2ccc(F)cc2)c(OC(=O)c2ccc([N+](=O)[O-])cc2)c1` the Potency was inconclusive: 31.6 µM [activator, single point]. In the case of `N=c1nc(N2CCCCC2)cc(N)n1O`, the Potency is reported as “inactive”. For `Cc1ccccc1S(=O)(=O)Nc1nc2ccccc2nc1N1CCc2ccccc2C1`, the Potency was inconclusive: 5.62 µM [activator, single point]. In the case of `O=C(CN(c1cccc(C(F)(F)F)c1)S(=O)(=O)c1ccc(Cl)c([N+](=O)[O-])c1)NCc1ccc(F)cc1`, the “activity change, negative = inhibition” value is reported as inactive: 31.7%. With `Cc1cc(C)nc(NS(=O)(=O)c2ccc(NC(=O)CSc3nc4ccccc4[nH]3)cc2)n1` the “activity change, negative = inhibition” value was inactive: 20.2%. For `CN(C)c1cccc(N=C2C=C(N3CCOCC3)CC(C)(C)C2)c1`, the Potency was inconclusive: 0.562 µM [inhibitor, partial curve, poor fit]. In the case of `Cc1cc(C)c2c(=O)n(CC(=O)N3CCC(Cc4ccccc4)CC3)sc2n1`, the Potency is reported as inconclusive: 17.8 µM [activator, partial curve, poor fit]. In the case of `Nc1c(S(=O)(=O)c2cccs2)c2nc3ccccc3nc2n1/N=C/c1cccc(O)c1`, the Potency is reported as inconclusive: 35.5 µM [inhibitor, single point]. For `CC1CCC/C(=C\Nc2ccccc2C(=O)O)C1=O` (configuration not stated), the Potency was inconclusive: 5.62 µM [inhibitor, single point]. With `N#CCSc1nnc(Cc2ccc3c(c2)OCO3)o1` the Potency was inconclusive: 5.62 µM [inhibitor, single point]. With `Cc1cc([N+](=O)[O-])ccc1NC(=S)NC(=O)C(c1ccccc1)c1ccccc1` the Potency was inconclusive: 35.5 µM [inhibitor, single point]. With `C/C(=N\NS(=O)(=O)c1ccc(Cl)cc1)c1ccc(O)cc1` the Potency was inconclusive: 35.5 µM [inhibitor, single point]. For `COc1cc(OC)cc(-c2nc3ccccc3c(=O)n2OC(=O)c2ccccc2C)c1`, the Potency was inconclusive: 11.2 µM [inhibitor, partial curve, poor fit]. For `CC(C)Cn1c(CN(C)Cc2ccccc2)nc2c1c(=O)n(C)c(=O)n2C`, the Potency was inconclusive: 10 µM [inhibitor, partial curve, poor fit]. In the case of `O=C(/C=C/Sc1ncn[nH]1)c1ccc(Cl)cc1`, the Potency is reported as inconclusive: 35.5 µM [inhibitor, single point]. In the case of `Cc1sc2c3ccsc3ccc2[n+]1C`, the Potency is reported as inconclusive: 35.5 µM [activator, single point]. With `CN(C)c1ccc(/C=[N+](\[O-])C(C)(C)/C=N/O)cc1` the “activity change, negative = inhibition” value was inactive: -14%. In the case of `c1ccc(-c2ccc(-c3cn4c(n3)CCC4)cc2)cc1`, the Potency is reported as inconclusive: 8.91 µM [inhibitor, partial curve]. For `O=[N+]([O-])c1cnccc1Nc1ccc(F)cc1`, the Potency was inconclusive: 11.2 µM [inhibitor, single point]. For `O=C(CN1C(=O)C(c2ccc(F)cc2)=NC12CCCC2)Nc1ccc(F)cc1`, the Potency was inconclusive: 22.4 µM [inhibitor, single point]. In the case of `O=C(NC1=NCCS1)c1csc2ccccc12`, the Potency is reported as inconclusive: 0.112 µM [inhibitor, full curve, poor fit]. With `Fc1ccccc1CNC(=S)Nc1cccc(C(F)(F)F)c1` the Potency was inconclusive: 35.5 µM [inhibitor, single point]. In the case of `O=C(COC(=O)c1cccnc1Cl)c1ccc(Cl)cc1Cl`, the Potency is reported as inconclusive: 5.62 µM [activator, single point]. In the case of `CCc1ccc(C2=NN(c3ccc(S(N)(=O)=O)cc3)C(c3ccc(F)cc3)C2)cc1` (configuration not stated), the Potency is reported as inconclusive: 35.5 µM [inhibitor, single point]. For `CCCN1CCCc2cc(CN)ccc21`, the Potency was active: 12.6 µM. In the case of `O=C(c1ccc2c(c1)OCO2)N1CCN(c2ccc(C(F)(F)F)cn2)CC1`, the “activity change, negative = inhibition” value is reported as inactive: -20.7%. In the case of `COc1cc(C)ccc1OCCCCOc1ccccc1C(C)=O`, the Potency is reported as inconclusive: 12.6 µM [inhibitor, partial curve]. In the case of `COc1ccc(C2c3ccc4ccccc4c3Oc3ncn(CCN4CCOCC4)c(=N)c32)cc1` (configuration not stated), the Potency is reported as inconclusive: 31.6 µM [activator, single point]. With `Cc1cc2nc3c(c(=O)n2[nH]1)CCCC3` the Potency was inconclusive: 5.62 µM [inhibitor, single point]. In the case of `COc1ccc(CC(=O)O/N=C(\N)Cc2cccc3ccccc23)cc1`, the “activity change, negative = inhibition” value is reported as inactive: 1.55%. For `O=C(N/N=C/c1cc(Br)cc(Br)c1O)c1ccncc1`, the Potency was inconclusive: 7.94 µM [inhibitor, partial curve]. For `CCO[C@@H]1OC(C(=O)NC2CC2)=C[C@H](c2c[nH]c3ccccc23)[C@H]1CCCO`, the Potency was inconclusive: 2.82 µM [activator, single point]. In the case of `Cc1cccc[n+]1C1C(c2ccc([N+](=O)[O-])cc2)C(C#N)=C(C(=C=[N-])C#N)NC1(O)C1CC1` (configuration not stated), the Potency is reported as inconclusive: 5.62 µM [inhibitor, single point]. With `CCOc1ccc(N(CC(N)=O)S(=O)(=O)c2ccc(F)cc2)cc1` the Potency was inconclusive: 0.794 µM [activator, single point]. In the case of `CSc1nc2ccc(NS(=O)(=O)c3ccc4c(c3)OCCO4)cc2s1`, the Potency is reported as active: 8.91 µM. In the case of `C#CC[N+]1(CC#Cc2ccccc2)CCCCC1`, the “activity change, negative = inhibition” value is reported as inactive: -5.08%. In the case of `Clc1c(CSc2nc3ccccc3o2)nc2ccccn12`, the Potency is reported as inconclusive: 8.91 µM [inhibitor, partial curve, poor fit]. For `Cc1ccc(-n2c(SCC(=O)NCc3ccco3)nnc2-c2cccnc2)cc1`, the “activity change, negative = inhibition” value was inactive: -6.97%. For `Cc1ccc(N(Cc2ccco2)C(=O)c2ccc(N3CCCCC3)c([N+](=O)[O-])c2)cc1`, the Potency was inconclusive: 17.8 µM [inhibitor, single point]. For `O=C(NC1CCN(Cc2ccccc2)CC1)C1CCN(S(=O)(=O)c2cccc3cccnc23)CC1`, the Potency was inconclusive: 7.08 µM [inhibitor, full curve, poor fit]. For `Cc1cc(C)c(C(=O)/C=C/c2ccco2)c(=O)[nH]1`, the activity change, negative = inhibition was inactive: 5.28% [at 9.22 µM]. For `CCCCCCC[C@H](N)[C@H](O)C(=O)N(C)[C@@H](CCS(C)=O)C(=O)N[C@@H](Cc1ccc(O)cc1)C(=O)N[C@@H](Cc1ccc(O)cc1)C(=O)O` (some centres not stated), the activity change, negative = inhibition was inactive: 6.98% [at 9.22 µM]. With `COn1c(C)c(C(C)=O)c2c3nonc3ccc21` the Potency was active: 35.5 µM. In the case of `CC(/C=N\Nc1nnc2c(n1)[nH]c1c(C)cccc12)=C\c1ccco1`, the Potency is reported as inconclusive: 35.5 µM [activator, partial curve]. In the case of `O=C(Nc1ccccc1)Nc1ccc(Cl)c([N+](=O)[O-])c1`, the Potency is reported as active: 12.6 µM. In the case of `Cc1cccc(N2N=C(C(=O)Nc3nc(C)cs3)CCC2=O)c1`, the Potency is reported as inconclusive: 35.5 µM [activator, single point].
% is set by controls: 0 for no effect and ±100 for the full control effect; potency is the fitted concentration of half-maximal effect.
